In this assay the target is T1, Flag-tagged PLEK2 (pleckstrin-2), stably expressed in NOZ cells (UniProt Q9NYT0).
T1 sequence: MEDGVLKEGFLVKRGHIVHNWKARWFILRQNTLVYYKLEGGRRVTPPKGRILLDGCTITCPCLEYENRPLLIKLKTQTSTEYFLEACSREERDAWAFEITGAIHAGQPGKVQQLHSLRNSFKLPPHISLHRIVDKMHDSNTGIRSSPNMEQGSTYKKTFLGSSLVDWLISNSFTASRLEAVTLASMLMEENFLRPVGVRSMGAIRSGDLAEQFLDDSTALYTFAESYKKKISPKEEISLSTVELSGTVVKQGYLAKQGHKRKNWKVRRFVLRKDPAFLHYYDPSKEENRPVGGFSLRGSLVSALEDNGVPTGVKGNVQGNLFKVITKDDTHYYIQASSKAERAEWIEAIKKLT
Description: affinity purification with mass spectrometry; lysate of NOZ cells stably overexpressing Flag-PLEK2 against control cells; immunoprecipitation as in the co-IP method, eluates run on a gel and stained with coomassie, HPLC and Orbitrap Elite.

These are yes or no findings as the source states them, for the method shown. In cells and extracts the contact can be indirect. A yes stands for co-enrichment or nearness to the bait. Other partners may have been found. Where a sequence is shown, tags or fusion partners need not be part of it.

As for “endogenous EGFR (epidermal growth factor receptor) of NOZ cells (from UniProt P00533 25-1210)”, the binding entry was “binds”.

For the origin of these results see article PMC6558801.
